Reference: article PMC12311239
These are yes or no findings as the source states them, for the method shown. In cells and extracts the contact can be indirect.

Chains of the proteins cited; added tags and fusions are not shown.
UniProt Q96RR4: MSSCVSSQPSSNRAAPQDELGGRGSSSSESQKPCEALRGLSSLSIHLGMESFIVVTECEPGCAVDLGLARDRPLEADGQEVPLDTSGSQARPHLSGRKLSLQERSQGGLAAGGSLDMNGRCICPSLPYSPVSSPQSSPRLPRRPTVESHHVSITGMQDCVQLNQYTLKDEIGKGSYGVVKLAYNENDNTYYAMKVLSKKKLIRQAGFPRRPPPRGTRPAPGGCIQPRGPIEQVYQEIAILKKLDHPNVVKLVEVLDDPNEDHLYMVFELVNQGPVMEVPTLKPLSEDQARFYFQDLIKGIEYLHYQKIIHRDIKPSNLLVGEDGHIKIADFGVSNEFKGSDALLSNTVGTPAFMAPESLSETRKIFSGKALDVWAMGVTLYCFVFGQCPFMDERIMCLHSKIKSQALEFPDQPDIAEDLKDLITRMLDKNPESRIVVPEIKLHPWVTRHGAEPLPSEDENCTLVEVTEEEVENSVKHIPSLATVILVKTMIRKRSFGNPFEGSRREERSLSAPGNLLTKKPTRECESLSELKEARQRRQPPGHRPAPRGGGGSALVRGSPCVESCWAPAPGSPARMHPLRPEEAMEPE
UniProt P48539: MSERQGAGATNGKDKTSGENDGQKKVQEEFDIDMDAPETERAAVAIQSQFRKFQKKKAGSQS

Target: Calcium/calmodulin-dependent kinase kinase 2 (human (endogenous in LNCaP and C4-2B)) (UniProt Q96RR4)
Test: co-IP; total lysates of LNCaP and C4-2B cells; IgG as negative control; also after PCP4 siRNA in LNCaP and PCP4 overexpression in C4-2B (Figure 6G); which antibody precipitated is not given

binding: no binding
Substance: Purkinje cell protein 4 (from UniProt P48539 1-62)
